Values from PubChem BioAssay AID1259405 (NCATS, 2018).

Screen: 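Knock-downs that lift recombinant protein yield in hamster ovary cells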 (primary screen)
System: Chinese hamster CHO-K1 ovary cells with stable secreted eGFP expression
Knock-down reagent: single siRNA against mouse genes, 0.8 pmol siRNA per well (2 µl of 400 nM stock)
Timing: 3 days
Detection: 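Per-well intracellular GFP measured by laser scanning cytometry, plus viability from ATP luminescence, each relative to plate median of non-targeting control wells, in %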
Scale: GFP, % of control: higher = more GFP per well, higher productivity; viability (ATP), % of control: higher = more viable cells (more ATP)
Call rule: 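Called active when intracellular GFP, relative to negative control, is at or above 120%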
The deposit covers about 50,000 reagents; shown is a random part of them. In the full data, about 4,000 (8%) got an active call. 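Mouse siRNA library applied to hamster cells; one well for each siRNA.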 Reagents against one gene are numbered here.

Gadd45b #1: GFP, % of control = 57.6; viability (ATP), % of control = 98.4; Call = inactive
Gadd45b #2: GFP, % of control = 50.2; viability (ATP), % of control = 75; Call = inactive
Gadd45b #3: GFP, % of control = 81.2; viability (ATP), % of control = 94.4; Call = inactive
Prph #1: GFP, % of control = 112; viability (ATP), % of control = 93.2; Call = inactive
Prph #2: GFP, % of control = 57; viability (ATP), % of control = 59.3; Call = inactive
Sgk1: GFP, % of control = 73; viability (ATP), % of control = 76; Call = inactive
Dhx30 #1: GFP, % of control = 104; viability (ATP), % of control = 116; Call = inactive
Dhx30 #2: GFP, % of control = 97.6; viability (ATP), % of control = 77.1; Call = inactive
Dhx30 #3: GFP, % of control = 78.9; viability (ATP), % of control = 54.5; Call = inactive
Agxt2 #1: GFP, % of control = 93.9; viability (ATP), % of control = 95.1; Call = inactive
Agxt2 #2: GFP, % of control = 57.2; viability (ATP), % of control = 122; Call = inactive
Agxt2 #3: GFP, % of control = 109; viability (ATP), % of control = 97.6; Call = inactive
Lmod2 #1: GFP, % of control = 61.2; viability (ATP), % of control = 65.7; Call = inactive
Lmod2 #2: GFP, % of control = 91.7; viability (ATP), % of control = 77.5; Call = inactive
Lmod2 #3: GFP, % of control = 96.6; viability (ATP), % of control = 83.3; Call = inactive
Hsd17b11 #1: GFP, % of control = 61.5; viability (ATP), % of control = 43.6; Call = inactive
Hsd17b11 #2: GFP, % of control = 66.2; viability (ATP), % of control = 53.4; Call = inactive
Hsd17b11 #3: GFP, % of control = 89.9; viability (ATP), % of control = 69.8; Call = inactive
Or5ak22 #1: GFP, % of control = 115; viability (ATP), % of control = 45.3; Call = inactive
Or5ak22 #2: GFP, % of control = 94.8; viability (ATP), % of control = 68.6; Call = inactive
Or5ak22 #3: GFP, % of control = 47.5; viability (ATP), % of control = 45.9; Call = inactive
Arid4b #1: GFP, % of control = 87.1; viability (ATP), % of control = 73.7; Call = inactive
Arid4b #2: GFP, % of control = 43; viability (ATP), % of control = 67.5; Call = inactive
Hspg2 #1: GFP, % of control = 59.1; viability (ATP), % of control = 68; Call = inactive
Hspg2 #2: GFP, % of control = 51.5; viability (ATP), % of control = 63.2; Call = inactive
Hspg2 #3: GFP, % of control = 119; viability (ATP), % of control = 85.3; Call = inactive
Gja1 #1: GFP, % of control = 81.5; viability (ATP), % of control = 75.5; Call = inactive
Gja1 #2: GFP, % of control = 135; viability (ATP), % of control = 97.3; Call = active
Gja1 #3: GFP, % of control = 93.6; viability (ATP), % of control = 124; Call = inactive
Sack1a #1: GFP, % of control = 29.9; viability (ATP), % of control = 37.8; Call = inactive
Sack1a #2: GFP, % of control = 91.4; viability (ATP), % of control = 86.7; Call = inactive
Sack1a #3: GFP, % of control = 96.8; viability (ATP), % of control = 69.5; Call = inactive
Cdrt4 #1: GFP, % of control = 69.2; viability (ATP), % of control = 67.8; Call = inactive
Cdrt4 #2: GFP, % of control = 74; viability (ATP), % of control = 86.2; Call = inactive
Cdrt4 #3: GFP, % of control = 40.1; viability (ATP), % of control = 55.4; Call = inactive
Bricd5 #1: GFP, % of control = 89.6; viability (ATP), % of control = 66.5; Call = inactive
Bricd5 #2: GFP, % of control = 113; viability (ATP), % of control = 93.4; Call = inactive
Bricd5 #3: GFP, % of control = 41.6; viability (ATP), % of control = 41.4; Call = inactive
Vmn2r29 #1: GFP, % of control = 41.9; viability (ATP), % of control = 42.9; Call = inactive
Vmn2r29 #2: GFP, % of control = 54.6; viability (ATP), % of control = 47.9; Call = inactive
Vmn2r29 #3: GFP, % of control = 139; viability (ATP), % of control = 64.6; Call = active

Limited to “viability (ATP), % of control” (4 entries from above):
Hsd17b11 #1: 43.6
Hsd17b11 #2: 53.4
Hsd17b11 #3: 69.8
Or5ak22 #1: 45.3
